According to PubChem BioAssay AID2685 (National Center for Advancing Translational Sciences (NCATS), 2010):
The list shows a part of the results. Shown are side measurements of this screen, not its main read-out; they come without a call. Compounds called inactive in the main read-out are mostly missing here. Words in brackets tell the shape of the fitted curve; partial curves, single points and poor fits give uncertain potencies.

Experiment: qHTS Assay for Lipid Storage Modulators in Drosophila S3 Cells;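 for cell number change: cells counted by Cell Tracker Red CMTPX staining in the red channel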
Conditions: BODIPY lipid droplet fluorescence, 18-24 h; for cell number change: measured here: cell count max response, cells fed with added oleic acid
Summary of the method: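 Drosophila S3 cells got compounds at several concentrations plus oleic acid (400 uM solution). Laser-scanning cytometry with 488 nm excitation read lipid droplets at 500-530 nm and cells at 575-640 nm. Percent activity was relative to 20 uM Triacsin C.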

[1] = measured here: lipid fluorescence (Fed channel) AC50, cells fed with added oleic acid
[2] = measured here: cell number channel AC50, cells fed with added oleic acid

Row | SMILES | cell number change | AC50 [1] | AC50 [2]
1 | Cc1noc(C)c1S(=O)(=O)Nc1ccc(C(=O)NC2CCCCC2)cc1 | -11.1% | 2.91 µM [rising, single point] | 
2 | C=CCn1c(SCC(N)=O)nc(C)cc1=O | 3.51% | 0.13 µM [falling, full curve, poor fit] | 
3 | CCN(CC)CCCNC(=S)N1CCN(c2nc3ccccc3n2CC)CC1 | 18.6% | 23.1 µM [rising, single point] | 
4 | COc1ccc(CC(=O)N/N=C(\C)c2cccnc2)cc1 | 37.7% |  | 29.1 µM [rising, single point]
5 | Cn1c2c(c(=O)n(C)c1=O)C(NS(=O)(=O)c1ccccc1)(C(F)(F)F)C(=O)N2 (stereo not given) | -16.6% | 3.26 µM [falling, single point] | 6.51 µM [falling, single point]
6 | Cc1ccc(S(=O)(=O)Nc2ccccc2C(=O)Nc2ccc(S(=O)(=O)Nc3nccc(C)n3)cc2)cc1 | 6.08% | 13 µM [rising, single point] | 
7 | O=C(NCc1ccccc1F)c1ccc2c(c1)OCCO2 | 14.4% | 29.1 µM [rising, single point] | 
8 | COc1cc2c3c(c1)C(C)CC(C)(C)N3C(=O)C2=O (stereo not given) | 5.86% | 29.1 µM [rising, single point] | 
9 | COc1ccc(/[N+]([O-])=C/c2ccoc2)cc1 | -7.61% | 18.4 µM [falling, single point] | 
10 | Cc1ccc(S(=O)(=O)N2CCCCC2)cc1NC(=O)COC(=O)Cc1cccc(C(F)(F)F)c1 | -5.8% |  | 0.326 µM [falling, partial curve, poor fit]
11 | COC(c1ccccc1)c1nnc(CCC(=O)NCCCc2ccccc2)o1 (stereo not given) | -56.9% | 2.06 µM [falling, full curve] | 2.06 µM [falling, full curve]
12 | CCCc1cc(=O)[nH]c(SCc2cc(Cl)ccc2OC(F)F)n1 | -14.4% |  | 
13 | Cc1ccc(C(=O)NCCc2nnc3ccc(SCC(=O)Nc4ccccc4F)nn23)cc1 | 17.8% | 29.1 µM [rising, single point] | 
14 | Cc1ccc(S(=O)(=O)Nc2cccc(-c3ccc(N4CCCCCC4)nn3)c2)cc1C | 8.06% | 0.326 µM [falling, single point] | 
15 | O=C(O)c1ccc(N/N=C/c2cccc3nccnc23)cc1 | 24.7% | 1.16 µM [rising, partial curve] | 0.092 µM [rising, full curve, poor fit]
16 | Cc1ccccc1NC(=O)c1cccc(S(=O)(=O)N2CCCCC2)c1 | 10.1% |  | 
17 | c1ccc(CN2CCN(CCN3CCn4c3nc3ccccc34)CC2)cc1 | 7.37% |  | 
18 | CC1CC(OCC(O)CN2CCOCC2)CC(C)(C)C1 (stereo not given) | 33.2% | 20.6 µM [rising, partial curve] | 29.1 µM [rising, single point]
19 | S=C(c1ccc2c(c1)OCO2)N1CCCCC1 | -10.9% |  | 2.31 µM [falling, single point]
20 | Cc1ccc(NC2CCCN(C(=O)c3cn4cccc(C)c4n3)C2)cc1C (stereo not given) | -4.53% | 29.1 µM [rising, single point] | 

Ordered by formula weight (low to high): some entries from above
Row | SMILES | cell number change | AC50 [1] | AC50 [2]
19 | S=C(c1ccc2c(c1)OCO2)N1CCCCC1 | -10.9% |  | 2.31 µM [falling, single point]
5 | Cn1c2c(c(=O)n(C)c1=O)C(NS(=O)(=O)c1ccccc1)(C(F)(F)F)C(=O)N2 (stereo not given) | -16.6% | 3.26 µM [falling, single point] | 6.51 µM [falling, single point]
13 | Cc1ccc(C(=O)NCCc2nnc3ccc(SCC(=O)Nc4ccccc4F)nn23)cc1 | 17.8% | 29.1 µM [rising, single point] | 

Next part:

Row | SMILES | cell number change | AC50 [1] | AC50 [2]
21 | CCCc1cc(=O)n2[nH]c(C)c(-c3ccc(OC)cc3)c2n1 |  | 18.4 µM [falling, single point] | 
22 | O=C(CNC(=S)NC(=O)c1ccccc1)c1ccccc1 | 9.18% |  | 
23 | Cc1nc(N2CCN(S(=O)(=O)c3ccccc3C#N)CC2)c2c(-c3cccs3)csc2n1 | -15.3% |  | 3.66 µM [rising, single point]
24 | COc1ccc(C(C(O)C(=O)c2c[nH]c3ccccc23)N2CCN(c3ccccc3)CC2)cc1 (stereo not given) |  | 2.06 µM [rising, partial curve] | 
25 | S=c1[nH]nc(-c2ccccn2)n1/N=C/c1cccs1 |  | 0.058 µM [rising, full curve] | 0.00517 µM [falling, full curve, poor fit]
26 | O=C(CCNC(=O)C1CCN(S(=O)(=O)c2ccccc2)CC1)NCc1ccc(Cl)cc1 | 15.3% |  | 
27 | O=C(OCC(=O)N1CCN(S(=O)(=O)c2ccc(Cl)cc2)CC1)c1ccc([N+](=O)[O-])o1 | 14.1% | 1.64 µM [falling, partial curve] | 
28 | Cc1ccc(CN(CC(=O)N/N=C/c2ccco2)S(=O)(=O)c2ccc(C)cc2)cc1 | 69.6% | 1.3 µM [rising, full curve] | 3.26 µM [rising, partial curve]
29 | CCNc1nc(OC)nc(Oc2ccc(=O)n(-c3ccccc3)n2)n1 |  |  | 0.13 µM [falling, full curve, poor fit]
30 | Cc1ccc(S(=O)(=O)c2c(C)cc(C)nc2Oc2cccc(C)c2C)cc1 | 20.1% | 29.1 µM [rising, single point] | 
31 | CCc1cccc(NC(=O)COC(=O)/C=C/c2cccs2)c1 | -5.5% |  | 
32 | O=C1C2CC=CCC2C(=O)N1c1ccc(NCCc2ccccc2)c([N+](=O)[O-])c1 (stereo not given) | 15.7% | 0.82 µM [rising, partial curve, poor fit] | 
33 | O=c1[nH]c(/C=C/c2ccc(Br)cc2)nc2c1cnn2-c1ccccc1 | -6.77% |  | 0.116 µM [falling, full curve]
34 | COc1ccc(N/C=C2\C(=O)CCc3c2oc2cc(Cl)c(O)c(Cl)c32)cc1 | -3.44% | 29.1 µM [falling, single point] | 
35 | Cc1cccc(C)c1NC(=O)NCCSc1snnc1C | 39.8% | 2.06 µM [rising, full curve] | 7.31 µM [rising, partial curve]
36 | CC(=O)Nc1ccc(OCCOc2ccc(/C=C3\C(=N)N4N=C(C)SC4=NC3=O)cc2)cc1 | -9.72% |  | 
37 | COc1ccc2oc3ccccc3c(=O)c2c1 | 30.4% | 6.51 µM [falling, single point] | 1.16 µM [rising, full curve, poor fit]
38 | Cc1ccc(N2C(=O)c3ccc(C(=O)N4CCN(Cc5ccccc5)CC4)cc3C2=O)cc1 | -15.6% | 2.31 µM [falling, full curve] | 
39 | Nc1nc(NCc2ccco2)nc(Nc2ccc(F)cc2)c1[N+](=O)[O-] | 21.6% | 0.651 µM [falling, single point] | 
